This is one part of the list.
Tests used:
Experiment in all cases: log2 fold change, soluble protein after heating vs DMSO (PISA); higher = thermal stabilisation; K562 cells, 10 uM, 30 min; active = over 0.2 and 3.5 SD of the protein, either way, in both replicates (recomputed)
bafetinib = compound: Cc1ccc(NC(=O)c2ccc(CN3CC[C@H](N(C)C)C3)c(C(F)(F)F)c2)cc1Nc1nccc(-c2cncnc2)n1 [bafetinib]
Method in brief: (§1)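 Aliquots of K562 cells (2×10^6 cells/mL) treated with 10 μM compound for 30 min were heated for 3 min over 48°C-58°C. After pooling and extraction in PBS with 0.5% NP-40 at 4°C, soluble protein from a 21,000xg, 90 min spin was quantified by TMTpro 16plex LC-MS/MS with channel sums equalised. Thermal stability is expressed against control samples, from duplicates, as a log2 fold change.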

By UniProt entry, the sequences of proteins in these tests, tags left out. Where a name states a change or a piece, a line headed by the entry shows the natural chain unless it says otherwise.
UniProt P25098: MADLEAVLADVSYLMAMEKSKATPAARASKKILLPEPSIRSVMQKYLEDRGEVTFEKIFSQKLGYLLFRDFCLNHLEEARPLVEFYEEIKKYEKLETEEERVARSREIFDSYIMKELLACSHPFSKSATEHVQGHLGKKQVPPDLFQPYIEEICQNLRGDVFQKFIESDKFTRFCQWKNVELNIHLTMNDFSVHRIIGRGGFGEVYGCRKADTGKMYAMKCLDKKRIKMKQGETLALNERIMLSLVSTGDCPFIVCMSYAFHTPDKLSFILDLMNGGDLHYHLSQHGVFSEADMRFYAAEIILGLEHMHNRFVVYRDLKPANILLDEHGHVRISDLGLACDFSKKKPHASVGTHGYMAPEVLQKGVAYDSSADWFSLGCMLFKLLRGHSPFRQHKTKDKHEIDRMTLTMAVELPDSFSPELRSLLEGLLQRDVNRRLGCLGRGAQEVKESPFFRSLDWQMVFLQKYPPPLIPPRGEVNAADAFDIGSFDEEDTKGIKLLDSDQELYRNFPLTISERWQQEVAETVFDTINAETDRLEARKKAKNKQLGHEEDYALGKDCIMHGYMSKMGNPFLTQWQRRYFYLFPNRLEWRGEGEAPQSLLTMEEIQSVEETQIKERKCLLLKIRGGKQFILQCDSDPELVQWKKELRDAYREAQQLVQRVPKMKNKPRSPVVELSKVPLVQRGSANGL
UniProt O95249: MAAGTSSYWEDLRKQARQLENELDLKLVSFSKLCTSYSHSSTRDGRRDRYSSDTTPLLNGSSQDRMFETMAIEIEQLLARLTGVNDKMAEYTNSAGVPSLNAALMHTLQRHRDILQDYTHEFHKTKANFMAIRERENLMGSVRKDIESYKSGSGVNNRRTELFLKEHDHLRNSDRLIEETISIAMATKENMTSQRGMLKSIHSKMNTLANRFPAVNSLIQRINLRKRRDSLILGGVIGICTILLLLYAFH
UniProt P15104, whole entry, looked up: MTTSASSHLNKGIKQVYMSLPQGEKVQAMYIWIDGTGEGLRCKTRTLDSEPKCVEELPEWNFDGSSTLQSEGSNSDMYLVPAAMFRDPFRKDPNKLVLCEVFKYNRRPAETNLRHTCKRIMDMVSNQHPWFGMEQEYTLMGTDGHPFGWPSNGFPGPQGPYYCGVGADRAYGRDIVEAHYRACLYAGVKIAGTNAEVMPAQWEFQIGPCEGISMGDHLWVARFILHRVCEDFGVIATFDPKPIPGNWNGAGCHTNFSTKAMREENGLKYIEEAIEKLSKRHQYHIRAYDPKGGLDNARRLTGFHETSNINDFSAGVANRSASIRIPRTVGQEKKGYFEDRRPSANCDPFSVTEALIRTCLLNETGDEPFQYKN
UniProt Q9P2T1: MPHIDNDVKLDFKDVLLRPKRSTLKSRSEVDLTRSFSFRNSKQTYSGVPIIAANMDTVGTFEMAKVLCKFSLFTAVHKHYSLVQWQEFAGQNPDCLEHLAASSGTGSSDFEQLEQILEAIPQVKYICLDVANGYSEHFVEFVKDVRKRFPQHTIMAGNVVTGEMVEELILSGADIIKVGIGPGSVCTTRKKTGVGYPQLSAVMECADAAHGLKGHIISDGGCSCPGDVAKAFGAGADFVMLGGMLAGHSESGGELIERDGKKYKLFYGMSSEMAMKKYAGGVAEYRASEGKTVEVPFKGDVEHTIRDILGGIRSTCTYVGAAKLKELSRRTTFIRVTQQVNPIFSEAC
UniProt O75791: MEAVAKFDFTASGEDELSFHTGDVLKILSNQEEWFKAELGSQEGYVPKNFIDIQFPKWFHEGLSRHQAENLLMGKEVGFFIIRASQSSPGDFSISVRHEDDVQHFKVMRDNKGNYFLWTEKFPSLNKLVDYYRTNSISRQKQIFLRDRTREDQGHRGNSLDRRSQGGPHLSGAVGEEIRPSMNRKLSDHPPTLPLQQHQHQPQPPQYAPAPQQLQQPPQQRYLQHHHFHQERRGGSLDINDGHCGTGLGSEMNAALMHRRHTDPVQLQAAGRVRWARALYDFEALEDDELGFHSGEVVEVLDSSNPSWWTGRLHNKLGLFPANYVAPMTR
UniProt O00461: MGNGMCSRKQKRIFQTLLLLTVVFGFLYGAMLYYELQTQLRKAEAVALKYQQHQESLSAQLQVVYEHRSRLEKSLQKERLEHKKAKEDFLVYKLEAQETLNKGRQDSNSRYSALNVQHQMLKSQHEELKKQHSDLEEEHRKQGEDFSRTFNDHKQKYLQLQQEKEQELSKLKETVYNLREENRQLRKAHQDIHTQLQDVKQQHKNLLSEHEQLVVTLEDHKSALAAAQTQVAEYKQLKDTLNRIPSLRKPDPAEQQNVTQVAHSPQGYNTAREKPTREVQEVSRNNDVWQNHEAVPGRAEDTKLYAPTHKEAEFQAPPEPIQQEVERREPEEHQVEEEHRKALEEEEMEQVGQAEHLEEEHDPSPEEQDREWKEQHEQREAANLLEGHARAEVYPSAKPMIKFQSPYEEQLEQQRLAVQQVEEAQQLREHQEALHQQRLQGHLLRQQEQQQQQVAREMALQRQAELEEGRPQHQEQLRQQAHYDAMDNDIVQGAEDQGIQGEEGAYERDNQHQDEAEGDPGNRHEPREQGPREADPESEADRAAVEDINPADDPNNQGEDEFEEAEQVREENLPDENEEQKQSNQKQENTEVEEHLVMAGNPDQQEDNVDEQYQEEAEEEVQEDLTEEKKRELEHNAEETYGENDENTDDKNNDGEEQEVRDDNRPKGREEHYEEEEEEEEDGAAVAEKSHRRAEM
UniProt P36969, whole entry, looked up: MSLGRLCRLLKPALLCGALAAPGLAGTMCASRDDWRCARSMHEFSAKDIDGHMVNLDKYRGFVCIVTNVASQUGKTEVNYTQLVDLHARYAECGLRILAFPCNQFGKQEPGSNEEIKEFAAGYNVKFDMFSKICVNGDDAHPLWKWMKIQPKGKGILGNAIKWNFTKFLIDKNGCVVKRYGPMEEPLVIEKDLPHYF
UniProt P17174: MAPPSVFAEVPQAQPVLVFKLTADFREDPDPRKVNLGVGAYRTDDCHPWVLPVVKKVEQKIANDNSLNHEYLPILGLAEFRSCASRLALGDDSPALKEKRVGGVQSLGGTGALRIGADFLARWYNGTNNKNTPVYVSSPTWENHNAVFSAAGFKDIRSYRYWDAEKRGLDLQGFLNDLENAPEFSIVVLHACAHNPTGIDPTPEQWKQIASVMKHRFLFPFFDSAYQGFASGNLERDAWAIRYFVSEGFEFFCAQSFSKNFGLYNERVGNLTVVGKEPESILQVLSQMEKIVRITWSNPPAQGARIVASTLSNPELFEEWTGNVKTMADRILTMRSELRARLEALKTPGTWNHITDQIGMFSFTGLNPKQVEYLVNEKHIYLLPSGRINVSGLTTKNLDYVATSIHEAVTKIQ
UniProt Q8TDQ7: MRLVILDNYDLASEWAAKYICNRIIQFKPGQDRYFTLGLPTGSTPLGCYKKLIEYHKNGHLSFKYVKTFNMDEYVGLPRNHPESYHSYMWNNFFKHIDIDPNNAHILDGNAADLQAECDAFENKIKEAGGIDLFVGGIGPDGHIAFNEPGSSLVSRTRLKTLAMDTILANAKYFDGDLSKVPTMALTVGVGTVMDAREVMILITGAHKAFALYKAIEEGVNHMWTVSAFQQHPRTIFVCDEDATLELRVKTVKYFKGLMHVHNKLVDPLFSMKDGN
UniProt Q9BRX5: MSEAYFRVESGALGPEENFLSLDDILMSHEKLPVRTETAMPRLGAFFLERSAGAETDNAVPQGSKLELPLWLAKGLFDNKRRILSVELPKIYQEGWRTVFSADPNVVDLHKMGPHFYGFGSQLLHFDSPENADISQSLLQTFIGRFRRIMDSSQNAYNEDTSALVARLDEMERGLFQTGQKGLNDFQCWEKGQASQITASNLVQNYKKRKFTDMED
UniProt Q92917: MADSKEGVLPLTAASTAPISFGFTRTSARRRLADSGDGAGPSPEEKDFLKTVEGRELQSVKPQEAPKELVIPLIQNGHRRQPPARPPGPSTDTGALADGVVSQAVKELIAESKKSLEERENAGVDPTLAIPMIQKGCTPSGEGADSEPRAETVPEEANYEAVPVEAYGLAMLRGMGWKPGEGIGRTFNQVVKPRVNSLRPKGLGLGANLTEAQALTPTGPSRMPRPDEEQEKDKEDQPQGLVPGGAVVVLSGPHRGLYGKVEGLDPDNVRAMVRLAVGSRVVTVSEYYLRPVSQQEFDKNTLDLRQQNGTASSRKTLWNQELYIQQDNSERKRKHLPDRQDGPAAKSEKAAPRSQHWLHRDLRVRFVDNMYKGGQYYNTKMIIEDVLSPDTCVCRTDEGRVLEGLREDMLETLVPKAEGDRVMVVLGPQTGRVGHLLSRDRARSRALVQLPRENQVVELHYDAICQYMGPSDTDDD
UniProt Q9BQ67, whole entry, looked up: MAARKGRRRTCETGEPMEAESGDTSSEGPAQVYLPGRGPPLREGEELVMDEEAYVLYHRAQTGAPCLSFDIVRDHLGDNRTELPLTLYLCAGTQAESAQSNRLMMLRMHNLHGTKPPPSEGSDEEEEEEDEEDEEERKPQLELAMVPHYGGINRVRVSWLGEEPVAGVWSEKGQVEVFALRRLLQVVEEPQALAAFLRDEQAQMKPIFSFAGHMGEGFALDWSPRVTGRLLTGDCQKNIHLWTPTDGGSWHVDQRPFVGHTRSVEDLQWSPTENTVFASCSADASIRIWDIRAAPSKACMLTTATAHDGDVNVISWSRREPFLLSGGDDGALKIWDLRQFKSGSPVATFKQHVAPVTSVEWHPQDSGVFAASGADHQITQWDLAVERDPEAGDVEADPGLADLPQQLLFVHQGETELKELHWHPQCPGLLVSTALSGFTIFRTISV
UniProt P00505: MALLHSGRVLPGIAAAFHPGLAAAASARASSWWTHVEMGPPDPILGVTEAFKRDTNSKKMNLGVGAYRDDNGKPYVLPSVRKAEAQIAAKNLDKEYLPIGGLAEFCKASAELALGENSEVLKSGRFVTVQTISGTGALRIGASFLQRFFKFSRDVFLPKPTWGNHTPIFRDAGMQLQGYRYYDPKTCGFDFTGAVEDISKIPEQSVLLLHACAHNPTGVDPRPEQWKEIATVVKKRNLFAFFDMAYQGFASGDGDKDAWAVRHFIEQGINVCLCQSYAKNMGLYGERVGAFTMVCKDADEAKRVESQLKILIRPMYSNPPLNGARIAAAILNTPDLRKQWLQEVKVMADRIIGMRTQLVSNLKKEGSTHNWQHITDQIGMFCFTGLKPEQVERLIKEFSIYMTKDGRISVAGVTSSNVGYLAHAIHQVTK
UniProt Q9HC38: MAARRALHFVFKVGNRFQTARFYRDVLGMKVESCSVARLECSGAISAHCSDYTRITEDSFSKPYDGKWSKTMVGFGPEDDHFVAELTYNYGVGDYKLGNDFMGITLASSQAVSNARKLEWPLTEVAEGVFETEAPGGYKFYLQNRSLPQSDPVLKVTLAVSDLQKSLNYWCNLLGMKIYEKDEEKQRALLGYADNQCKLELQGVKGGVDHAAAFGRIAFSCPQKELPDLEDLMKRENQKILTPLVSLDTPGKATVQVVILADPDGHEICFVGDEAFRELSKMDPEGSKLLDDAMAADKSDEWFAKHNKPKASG
UniProt Q12849: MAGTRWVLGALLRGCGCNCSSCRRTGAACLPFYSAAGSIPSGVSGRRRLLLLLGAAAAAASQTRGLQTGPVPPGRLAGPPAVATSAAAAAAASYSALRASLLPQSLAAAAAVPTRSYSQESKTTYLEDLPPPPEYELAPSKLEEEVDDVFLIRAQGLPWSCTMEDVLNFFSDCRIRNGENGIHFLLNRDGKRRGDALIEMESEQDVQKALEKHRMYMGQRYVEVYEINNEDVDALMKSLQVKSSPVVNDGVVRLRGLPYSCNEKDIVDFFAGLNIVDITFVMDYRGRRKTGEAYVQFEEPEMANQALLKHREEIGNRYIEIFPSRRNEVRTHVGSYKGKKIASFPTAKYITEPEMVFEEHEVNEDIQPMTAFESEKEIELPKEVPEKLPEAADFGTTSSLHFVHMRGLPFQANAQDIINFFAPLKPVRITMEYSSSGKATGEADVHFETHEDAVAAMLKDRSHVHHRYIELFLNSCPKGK
UniProt O14653: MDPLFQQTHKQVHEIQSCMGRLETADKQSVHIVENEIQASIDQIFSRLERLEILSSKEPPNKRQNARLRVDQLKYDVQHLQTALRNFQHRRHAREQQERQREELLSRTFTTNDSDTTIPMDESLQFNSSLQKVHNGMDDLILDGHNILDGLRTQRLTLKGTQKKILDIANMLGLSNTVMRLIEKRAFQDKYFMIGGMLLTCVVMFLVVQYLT

[1] = compound: Cc1cccc(CC(=O)N2CCc3c2ccc(-c2cn(C)c4ncnc(N)c24)c3F)n1
Method in brief: as §1

nilotinib = compound: Cc1cn(-c2cc(NC(=O)c3ccc(C)c(Nc4nccc(-c5cccnc5)n4)c3)cc(C(F)(F)F)c2)cn1 [nilotinib]
Method in brief: as §1

[2] = compound: Cc1nc(Nc2n[nH]c3c2CN(C(=O)N[C@H](CN(C)C)c2ccccc2)C3(C)C)c2sccc2n1
Method in brief: as §1

dasatinib = compound: Cc1nc(Nc2ncc(C(=O)Nc3c(C)cccc3Cl)s2)cc(N2CCN(CCO)CC2)n1 [dasatinib]
Method in brief: as §1

[3] = compound: Cc1ncc(-c2ccnc(Nc3ccc(S(C)(=O)=O)cc3)n2)n1C(C)C
Method in brief: as §1

[4] = compound: Cn1cc(-c2ccc3c(c2)CCN3C(=O)Cc2cccc(C(F)(F)F)c2)c2c(N)ncnc21
Method in brief: as §1

[5] = compound: Cn1cc(-c2ccc3nnc(C(F)(F)c4ccc5ncccc5c4)n3n2)cn1
Method in brief: as §1

tipifarnib = compound: Cn1cncc1[C@@](N)(c1ccc(Cl)cc1)c1ccc2c(c1)c(-c1cccc(Cl)c1)cc(=O)n2C [tipifarnib]
Method in brief: as §1

mubritinib = compound: FC(F)(F)c1ccc(/C=C/c2nc(COc3ccc(CCCCn4ccnn4)cc3)co2)cc1 [mubritinib]
Method in brief: as §1

[6] = compound: NC(=O)Nc1cc(-c2cccc(F)c2)sc1C(=O)N[C@H]1CCCNC1
Method in brief: as §1

[7] = compound: NC(=O)c1cnc(N[C@@H]2CCCC[C@@H]2N)nc1Nc1cccc(-n2nccn2)c1
Method in brief: as §1

[8] = compound: NC1(c2ccc(-c3nc4ccn5c(=O)[nH]nc5c4cc3-c3ccccc3)cc2)CCC1
Method in brief: as §1

[9] = compound: NCC(=O)Nc1ccc(-n2nc(C(F)(F)F)cc2-c2ccc3c(ccc4ccccc43)c2)cc1
Method in brief: as §1

entinostat = compound: Nc1ccccc1NC(=O)c1ccc(CNC(=O)OCc2cccnc2)cc1 [entinostat]
Method in brief: as §1

vorinostat = compound: O=C(CCCCCCC(=O)Nc1ccccc1)NO [vorinostat]
Method in brief: as §1

citarinostat = compound: O=C(CCCCCCNC(=O)c1cnc(N(c2ccccc2)c2ccccc2Cl)nc1)NO [citarinostat]
Method in brief: as §1

silmitasertib = compound: O=C(O)c1ccc2c(c1)nc(Nc1cccc(Cl)c1)c1ccncc12 [silmitasertib]
Method in brief: as §1

[10] = compound: O=C1NC(=O)C(c2cnc3ccccn23)=C1c1cn2c3c(cc(F)cc13)CN(C(=O)N1CCCCC1)CC2
Method in brief: as §1

[11] = compound: c1cc(OCCN2CCCCC2)cc(-c2n[nH]c3ccc(-c4nnc[nH]4)cc23)c1
Method in brief: as §1

Target	log2 fold change (bafetinib)	log2 fold change [1]	log2 fold change (nilotinib)	log2 fold change [2]	log2 fold change (dasatinib)	log2 fold change [3]	log2 fold change [4]	log2 fold change [5]	log2 fold change (tipifarnib)	log2 fold change (mubritinib)	log2 fold change [6]	log2 fold change [7]	log2 fold change [8]	log2 fold change [9]	log2 fold change (entinostat)	log2 fold change (vorinostat)	log2 fold change (citarinostat)	log2 fold change (silmitasertib)	log2 fold change [10]	log2 fold change [11]
GRK2 (UniProt P25098)	inactive: -0.044	inactive: -0.006	inactive: -0.056	inactive: 0.057	inactive: -0.084	inactive: -0.029	inactive: 0.078	inactive: 0.014	inactive: -0.037	inactive: -0.023	inactive: 0.137	inactive: -0.02	inactive: -0.084	inactive: -0.018	inactive: 0.016	inactive: 0.016	inactive: 0.03	inactive: 0.009	inactive: -0.022	inactive: -0.02
GOSR1 (UniProt O95249)	inactive: -0.073	inactive: 0.024	inactive: 0.016	inactive: -0.012	inactive: 0.034	inactive: -0.001	inactive: 0.012	inactive: 0.038	inactive: 0.006	inactive: 0.022	inactive: 0.015	inactive: -0.068	inactive: -0.075	inactive: -0.036	inactive: 0.016	inactive: -0.043	inactive: 0.034	inactive: 0.002	inactive: -0.031	inactive: -0.035
GLUL (UniProt P15104)	inactive: -0.027	inactive: -0.038	inactive: -0.061	inactive: 0.062	inactive: 0.015	inactive: -0.148	inactive: -0.035	inactive: -0.085	inactive: 0.011	inactive: -0.112	inactive: 0.059	inactive: -0.104	inactive: 0.061	inactive: 0.018	inactive: -0.009	inactive: 0.04	inactive: -0.024	inactive: 0.032	inactive: -0.012	inactive: -0.087
GMPR2 isoform 2 (UniProt Q9P2T1)	inactive: -0.025	inactive: 0.007	inactive: -0.016	inactive: -0.001	inactive: 0.016	inactive: -0.017	inactive: 0.011	inactive: -0.005	inactive: -0.039	inactive: 0.029	inactive: -0.016	inactive: 0.013	inactive: 0.013	inactive: 0.04	inactive: -0.029	inactive: -0.029	inactive: 0.037	inactive: -0.012	inactive: -0.041	inactive: 0.003
GRAP2 (UniProt O75791)	inactive: 0.195	inactive: 0.088	inactive: 0.034	inactive: -0.112	inactive: -0.141	inactive: -0.006	inactive: 0	inactive: -0.027	inactive: -0.043	inactive: 0.054	inactive: -0.002	inactive: -0.105	inactive: -0.094	inactive: -0.102	inactive: -0.046	inactive: 0.106	inactive: 0.003	inactive: 0.1	inactive: -0.087	inactive: 0.025
GOLIM4 (UniProt O00461)	inactive: -0.032	inactive: -0.062	inactive: 0.016	inactive: -0.063	inactive: 0.049	inactive: 0.016	inactive: 0.006	inactive: 0.018	inactive: 0.018	inactive: 0.024	inactive: 0	inactive: 0.061	inactive: -0.134	inactive: 0.01	inactive: -0.042	inactive: -0.083	inactive: -0.042	inactive: 0.026	inactive: -0.05	inactive: -0.064
GPX4 (UniProt P36969)	inactive: 0.003	inactive: 0.023	inactive: 0.036	inactive: -0.031	inactive: 0.015	inactive: 0.019	inactive: 0.05	inactive: 0.003	inactive: -0.046	inactive: 0.033	inactive: -0.006	inactive: 0.079	inactive: -0.052	inactive: 0.032	inactive: -0.107	inactive: -0.082	active: -0.391	inactive: 0.004	inactive: -0.006	inactive: -0.049
GOT1 (UniProt P17174)	inactive: -0.02	inactive: -0.031	inactive: -0.004	inactive: 0.016	inactive: 0.031	inactive: -0.009	inactive: 0.013	inactive: -0.006	inactive: -0.021	inactive: 0.028	inactive: 0.026	inactive: 0.014	inactive: 0.009	inactive: -0.002	inactive: -0.025	inactive: -0.007	inactive: 0.027	inactive: -0.032	inactive: -0.015	inactive: -0.026
GNPDA2 (UniProt Q8TDQ7)	inactive: 0.007	inactive: 0.051	inactive: 0.085	inactive: 0.033	inactive: 0.089	inactive: 0.021	inactive: 0.089	inactive: 0.07	inactive: -0.022	inactive: 0.026	inactive: 0.05	inactive: 0.079	inactive: -0.02	inactive: -0.021	inactive: -0.037	inactive: -0.068	inactive: 0.004	inactive: -0.02	inactive: -0.058	inactive: 0.004
GINS3 (UniProt Q9BRX5)	inactive: 0	inactive: -0.035	inactive: 0.011	inactive: -0.059	inactive: -0.091	inactive: -0.028	inactive: 0.047	inactive: 0.031	inactive: -0.036	inactive: 0.084	inactive: -0.159	inactive: -0.038	inactive: -0.078	inactive: -0.057	inactive: 0.014	inactive: -0.039	inactive: 0.01	inactive: -0.052	inactive: -0.081	inactive: -0.013
GPKOW (UniProt Q92917)	inactive: -0.025	inactive: 0.086	inactive: -0.057	inactive: -0.207	active: -0.326	inactive: -0.025	inactive: 0.114	inactive: 0.139	inactive: -0.071	inactive: 0.126	inactive: -0.014	inactive: 0	inactive: -0.096	inactive: -0.216	inactive: 0.042	inactive: 0.122	inactive: 0.048	inactive: -0.078	inactive: -0.061	inactive: -0.01
GRWD1 (UniProt Q9BQ67)	inactive: 0.133	inactive: 0.021	inactive: -0.009	inactive: 0.016	inactive: 0.21	inactive: -0.034	inactive: -0.264	inactive: -0.169	inactive: 0.147	inactive: -0.068	inactive: 0.076	inactive: -0.016	inactive: 0.245	inactive: 0.086	inactive: -0.107	inactive: -0.004	inactive: -0.122	inactive: 0.135	inactive: 0.137	inactive: -0.112
GOT2 (UniProt P00505)	inactive: -0.034	inactive: -0.034	inactive: 0.009	inactive: 0.006	inactive: 0.022	inactive: -0.02	inactive: 0.018	inactive: 0.02	inactive: 0.033	inactive: 0.005	inactive: -0.023	inactive: -0.024	inactive: 0.038	inactive: 0.026	inactive: -0.016	inactive: -0.023	inactive: 0.026	inactive: -0.02	inactive: -0.013	inactive: 0.015
GLOD4 isoform 2 (UniProt Q9HC38)	inactive: -0.041	inactive: 0.024	inactive: -0.011	inactive: -0.012	inactive: -0.091	inactive: 0.003	inactive: 0.059	inactive: 0.033	inactive: -0.083	inactive: 0.065	inactive: -0.034	inactive: -0.07	inactive: -0.165	inactive: -0.052	inactive: 0.032	inactive: 0.025	inactive: 0.008	inactive: -0.017	inactive: -0.054	inactive: -0.013
GRSF1 (UniProt Q12849)	inactive: 0.048	inactive: 0.033	inactive: 0.014	inactive: -0.27	inactive: -0.156	inactive: 0.15	inactive: -0.084	inactive: -0.064	inactive: -0.039	inactive: -0.258	inactive: 0.025	inactive: -0.077	inactive: -0.098	inactive: -0.009	inactive: 0.084	inactive: 0.101	inactive: 0.11	inactive: 0.148	inactive: 0.207	inactive: -0.171
GOSR2 isoform 2 (UniProt O14653)	inactive: -0.09	inactive: 0.087	inactive: -0.011	inactive: -0.06	inactive: -0.065	inactive: 0.032	inactive: 0.036	inactive: 0.053	inactive: -0.08	inactive: 0.099	inactive: 0.021	inactive: 0.089	inactive: -0.144	inactive: 0.055	inactive: -0.021	inactive: 0.087	inactive: -0.002	inactive: -0.011		inactive: 0.231

Reformatted: entries from further up.
Target | log2 fold change (bafetinib) | log2 fold change [1] | log2 fold change (nilotinib) | log2 fold change [2] | log2 fold change (dasatinib) | log2 fold change [3] | log2 fold change [4] | log2 fold change [5] | log2 fold change (tipifarnib) | log2 fold change (mubritinib) | log2 fold change [6] | log2 fold change [7] | log2 fold change [8] | log2 fold change [9] | log2 fold change (entinostat) | log2 fold change (vorinostat) | log2 fold change (citarinostat) | log2 fold change (silmitasertib) | log2 fold change [10] | log2 fold change [11]
GRSF1 (UniProt Q12849) | inactive: 0.048 | inactive: 0.033 | inactive: 0.014 | inactive: -0.27 | inactive: -0.156 | inactive: 0.15 | inactive: -0.084 | inactive: -0.064 | inactive: -0.039 | inactive: -0.258 | inactive: 0.025 | inactive: -0.077 | inactive: -0.098 | inactive: -0.009 | inactive: 0.084 | inactive: 0.101 | inactive: 0.11 | inactive: 0.148 | inactive: 0.207 | inactive: -0.171
GOSR2 isoform 2 (UniProt O14653) | inactive: -0.09 | inactive: 0.087 | inactive: -0.011 | inactive: -0.06 | inactive: -0.065 | inactive: 0.032 | inactive: 0.036 | inactive: 0.053 | inactive: -0.08 | inactive: 0.099 | inactive: 0.021 | inactive: 0.089 | inactive: -0.144 | inactive: 0.055 | inactive: -0.021 | inactive: 0.087 | inactive: -0.002 | inactive: -0.011 |  | inactive: 0.231
